Paper PMC7450086

Amino acid sequences for entries named in this document (tags omitted). A change or cut given only in a name is not applied to a line headed by its entry. Chains listed by the source or under a name are the forms on record and can include a tag or linker.
UniProt Q9VIQ8: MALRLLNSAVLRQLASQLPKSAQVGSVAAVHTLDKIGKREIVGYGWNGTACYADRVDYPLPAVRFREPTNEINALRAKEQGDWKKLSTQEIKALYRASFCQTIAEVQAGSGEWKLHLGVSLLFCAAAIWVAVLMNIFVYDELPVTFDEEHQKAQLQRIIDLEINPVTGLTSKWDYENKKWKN
Serine-arginine protein 55 (P26686, form named): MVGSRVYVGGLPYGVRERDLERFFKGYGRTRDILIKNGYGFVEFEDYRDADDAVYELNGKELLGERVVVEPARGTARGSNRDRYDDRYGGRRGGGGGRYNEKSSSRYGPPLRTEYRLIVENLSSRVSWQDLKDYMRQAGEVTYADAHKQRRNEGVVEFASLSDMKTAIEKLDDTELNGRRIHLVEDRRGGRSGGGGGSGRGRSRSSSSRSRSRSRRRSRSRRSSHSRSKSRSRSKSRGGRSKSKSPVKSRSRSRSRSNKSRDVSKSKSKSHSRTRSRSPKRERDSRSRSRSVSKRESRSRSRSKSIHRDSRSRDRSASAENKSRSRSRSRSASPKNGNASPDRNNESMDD
UniProt Q24117: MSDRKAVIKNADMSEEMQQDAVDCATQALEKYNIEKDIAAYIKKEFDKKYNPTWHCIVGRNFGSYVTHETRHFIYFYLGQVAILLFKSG

These substances were tested against T1, EGFP-Spn-F (Spindle-F) (Drosophila) (UniProt Q9V9Y9) (assay: affinity purification with mass spectrometry; GFP-Spn-F (Actin-Gal4 driven) precipitated from adult fly head lysates with GFP magnetic beads (Chromoteck) overnight at 4 °C; lysis buffer 50 mM Tris-HCl pH 7.5, 150 mM NaCl, 1% NP-40, 0.5% sodium deoxycholate; washes 10 mM Tris-HCl pH 8.0, 150 mM NaCl, 0.1% NP-40; GFP-only flies as control; LC-MS/MS).
T1 sequence: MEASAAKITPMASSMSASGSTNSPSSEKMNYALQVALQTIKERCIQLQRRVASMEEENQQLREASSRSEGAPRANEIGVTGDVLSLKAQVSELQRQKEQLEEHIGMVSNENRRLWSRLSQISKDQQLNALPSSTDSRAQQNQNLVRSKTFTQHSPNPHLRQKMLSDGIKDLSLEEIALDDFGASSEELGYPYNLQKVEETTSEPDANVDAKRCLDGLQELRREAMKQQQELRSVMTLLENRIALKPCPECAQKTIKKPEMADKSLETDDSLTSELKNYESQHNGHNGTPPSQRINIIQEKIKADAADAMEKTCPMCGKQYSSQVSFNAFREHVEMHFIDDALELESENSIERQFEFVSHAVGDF

**Q.** For “Cytochrome c oxidase subunit 4 (from UniProt Q9VIQ8)”, which binding is on record?
**A.** The binding was “binds”.

**Q.** How did the binding turn out when “Serine-arginine protein 55 (from UniProt P26686 1-350)” was run?
**A.** Its binding is “binds”.

**Q.** With “dynein light chain 1 (Dlc1), Cut up (from UniProt Q24117 1-89)” as the substance, how does the binding read?
**A.** Its binding is “binds”.

Results are given in words; binding and its absence hold for the method and conditions named. Binding seen in cells or lysates may run through a third protein. These calls come from enrichment with a bait or labelling near it, and not all partners need be listed. Tags and fused reporters may be left off the sequences shown.
